In PubChem BioAssay AID720504 (National Center for Advancing Translational Sciences (NCATS), 2013):
Out of some 360,000 compounds screened, about 10,000 (2.8%) were called active. This list was built around the results that the source calls inconclusive (neither active nor inactive); the mix of calls is not that of the screen. Calls follow the shape of the dose curve; as a rule, active = well fitted inhibition curve with a large enough effect; inconclusive = small, poorly fitted or top-dose-only effect; inactive = flat fitted curve, though single readings scatter. A potency beside an inconclusive call is a rough fit, not a confirmed value.

Chains of the proteins cited; added tags and fusions are not shown.
UniProt P53350, whole entry, looked up: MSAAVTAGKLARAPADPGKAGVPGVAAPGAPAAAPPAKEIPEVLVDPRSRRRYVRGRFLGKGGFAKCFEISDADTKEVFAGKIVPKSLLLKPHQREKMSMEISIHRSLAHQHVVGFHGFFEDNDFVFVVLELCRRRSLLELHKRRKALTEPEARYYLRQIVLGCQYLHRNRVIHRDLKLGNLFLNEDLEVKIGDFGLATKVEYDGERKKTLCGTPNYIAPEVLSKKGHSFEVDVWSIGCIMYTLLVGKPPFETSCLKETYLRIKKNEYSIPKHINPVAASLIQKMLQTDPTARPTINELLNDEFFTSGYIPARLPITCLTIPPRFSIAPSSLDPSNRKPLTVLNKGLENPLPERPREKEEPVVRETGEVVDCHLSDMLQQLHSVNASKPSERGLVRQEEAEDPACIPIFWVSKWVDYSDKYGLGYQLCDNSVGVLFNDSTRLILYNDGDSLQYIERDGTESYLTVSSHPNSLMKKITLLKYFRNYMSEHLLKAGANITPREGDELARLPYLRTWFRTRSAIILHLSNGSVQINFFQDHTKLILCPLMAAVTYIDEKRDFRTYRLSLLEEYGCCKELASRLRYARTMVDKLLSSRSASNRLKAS

Target: Serine/threonine-protein kinase PLK1 (Homo sapiens) (UniProt P53350)
Test: qHTS for Inhibitors of PLK1-PDB (polo-like kinase 1 - polo-box domain): Primary Screen; also: nearly all actives have a fitted effect of over 65% in size; as to max response, negative = inhibition: series mostly up to about 57 µM
Details: Plk1 PBD binding of FITC phosphopeptide, fluorescence polarization
% is scaled to controls: 0 for no effect and ±100 for the full control effect; potency is read from the fitted curve at half-maximal effect.

SMILES	max response, negative = inhibition	Potency
COc1ccccc1N1CCN(C(=O)COc2cccc3ccccc23)CC1	inactive: 5.47%	
Cc1cccc(NC(=O)c2cc(NC(=O)C3CCCCC3C(=O)O)ccc2N2CCCCC2)c1 (stereo unspecified)		inconclusive: 29.9 µM [inhibitor, partial curve]
COc1cc(SC#N)ccc1N=Cc1c(C)[nH]n(-c2ccc(C)cc2C)c1=O		active: 8.44 µM
CC1=C(C#N)C(c2cccnc2)C2=C(CCCC2=O)N1 (stereo unspecified)		inconclusive: 26.7 µM [inhibitor, single point]
CC(=O)c1ccc(OCCCN2CCCCC2)cc1	inactive: -2.7%	
O=C(CN1C(=O)c2ccc([N+](=O)[O-])cc2C1=O)NCc1ccc(C(=O)O)cc1		inconclusive: 37.7 µM [inhibitor, single point]
Nc1nonc1-n1nnc(C(=O)N/N=C/C=C/c2ccccc2)c1CSC1=NCCS1	inactive: 0.917%	
C/C(=N\NC(=O)c1cccs1)C(C)(C)C		inconclusive: 26.7 µM [inhibitor, single point]
Cc1ccc(-c2cc(C(F)F)n3ncc(C(=O)NCc4ccco4)c3n2)cc1		inconclusive: 33.6 µM [inhibitor, single point]
O=C(N/N=C/c1ccc(N2CCOCC2)s1)c1ccccc1Cl		active: 23.8 µM
COc1ccccc1Cc1c(-c2ccco2)nc2ccc(Cl)cn12		inconclusive: 10.6 µM [inhibitor, partial curve]
COc1cccc(CN=C2Nc3ccccc3CS2)c1	inconclusive: -29.6% [inhibitor]	
Cc1cc(N2C(=O)C(O)=C(C(=O)c3ccco3)C2c2cccc(O)c2)no1 (stereo unspecified)		inconclusive: 33.6 µM [inhibitor, single point]
COc1cccc(OCc2cc(/C=N/Nc3ccc(C(=O)O)cc3)ccc2OC)c1		inconclusive: 26.7 µM [inhibitor, partial curve]
COc1ccc(CNC(=O)CCCn2nc(C)n3c(cc4sccc43)c2=O)cc1		inconclusive: 29.9 µM [inhibitor, partial curve]
CCOC(=O)c1cc2n(c1/N=C/N(C)C)-c1ccccc1C2=O		inconclusive: 8.44 µM [inhibitor, partial curve]
COc1ccc(CCNS(=O)(=O)c2cccc(C(=O)O)c2)cc1OC		active: 3.36 µM
Cc1ccc2nc(NC(=O)COC(=O)c3ccc(Br)o3)sc2c1		inconclusive: 21.2 µM [inhibitor, partial curve]
COc1ccc(N=Nc2nc3ccc(Br)cc3n2C)cc1		inconclusive: 2.38 µM [inhibitor, full curve, poor fit]
Cc1[nH]c2ccccc2c1-c1csc(N)n1		inconclusive: 29.9 µM [inhibitor, partial curve]
CCc1nc2c(OCCn3cccc3)cccn2c1N(C=O)Cc1ccccc1	inactive: 0.394%	
CC(C)Cc1nnc(NS(=O)(=O)c2ccccc2)s1		inconclusive: 26.7 µM [inhibitor, partial curve]
O=C(NCc1ccccc1)C(c1ccccc1)n1c(=O)c(-c2ccco2)nc2ccccc21 (stereo unspecified)		inconclusive: 9.47 µM [inhibitor, partial curve]
COc1ccnc(CSC(N)=Nc2ccc(F)cc2)c1		inconclusive: 26.7 µM [inhibitor, partial curve]

Entries from the list above with a Cl atom, in the order listed:
SMILES	max response, negative = inhibition	Potency
O=C(N/N=C/c1ccc(N2CCOCC2)s1)c1ccccc1Cl		active: 23.8 µM
COc1ccccc1Cc1c(-c2ccco2)nc2ccc(Cl)cn12		inconclusive: 10.6 µM [inhibitor, partial curve]

(more compounds)

SMILES	max response, negative = inhibition	Potency
COC(=O)CCCn1c(C)cc(C(=O)CCl)c1C		inconclusive: 21.2 µM [inhibitor, partial curve]
O=C1C2=C(c3ccccc31)[N+](=O)C1CCCCC1N2[O-] (stereo unspecified)		inconclusive: 23.8 µM [inhibitor, partial curve]
Cc1ccc(S(=O)(=O)N(C)C)cc1NC(=O)COC(=O)C1CCCC1	inactive: 2.39%	
O=C(CSc1nc2ccccc2s1)N1CCOCC1		inconclusive: 26.7 µM [inhibitor, single point]
Cc1nnc(N2CCc3ccccc3C2)[nH]c1=O		active: 29.9 µM
CCCOc1ccc(C(=O)Nc2ccc(NC(=O)c3cccs3)cc2)cc1	inactive: -12.8%	
COC(=O)c1ccc(OCc2nc(N)nc(N3CCOCC3)n2)cc1		inconclusive: 33.6 µM [inhibitor, single point]
CC1(C)OC(=O)N(CC(=O)Nc2ccccc2)C1(C)O (stereo unspecified)		active: 26.7 µM
Cc1cccc(C(=O)NC(=S)NC(C)c2ccccc2)c1 (stereo unspecified)	inactive: -4.28%	
Cc1ccc2oc3c(c(=O)c2c1)C(c1cccs1)N(CCCN(C)C)C3=O (stereo unspecified)		inconclusive: 26.7 µM [inhibitor, partial curve]
C=C(CN(C)C)C(=O)c1ccc(OC2OC(COC(C)=O)C(OC(C)=O)C(OC(C)=O)C2OC(C)=O)cc1 (stereo unspecified)		active: 15 µM
COCCNC(=O)CN(C(=O)CCC(=O)Nc1cc(C)on1)c1cccc(C)c1C		inconclusive: 29.9 µM [inhibitor, partial curve]
c1ccc2c(c1)ccn1c(Cc3ccsc3)c(C3CCCCC3)nc21	inactive: -8.19%	
Cc1csc2nc(COC(=O)c3ccc(Cl)c([N+](=O)[O-])c3)cc(=O)n12		inconclusive: 26.7 µM [inhibitor, single point]
Cc1cccc(OCCc2c(C)[nH]c(=S)[nH]c2=O)c1		inconclusive: 29.9 µM [inhibitor, single point]
N#Cc1cccc(N=c2ssnc2Cl)c1		active: 1.68 µM
Cc1ccc(-n2cc[nH]c2=S)c(C)c1		inconclusive: 26.7 µM [inhibitor, single point]
COc1cccc(-c2sc3cc(OC)c(OC)cc3c2-c2ccc(OCCN3CCCCC3)cc2)c1	inactive: -18.4%	
CC1(OC(=O)c2ccco2)C(=O)C=C2C=C(C3CC3)OC=C2C1=O (stereo unspecified)		inconclusive: 21.2 µM [inhibitor, single point]
O=C(NC(CO)c1ccccc1)c1ccco1 (stereo unspecified)		inconclusive: 18.9 µM [inhibitor, partial curve]
CC1CCCN(CCCN2C(=O)C3C(C(=O)Nc4ccc(Cl)cc4)C4C=CC3(O4)C2C(=O)NC2CCCCC2)C1 (stereo unspecified)	inactive: -10.4%	
Cc1cccc(C(=O)NC(=S)Nc2ccc(Cc3ccncc3)cc2)c1		inconclusive: 26.7 µM [inhibitor, partial curve]
O=[N+]([O-])c1cc(C=Nc2ccc3ccccc3c2)ccc1Br	inactive: -10.2%	
CCC(Oc1ccccc1)C(=O)NCCOC (stereo unspecified)		inconclusive: 26.7 µM [inhibitor, single point]

SMILES	max response, negative = inhibition	Potency
Cc1ccc(NC(=O)Cc2nn(C)c(=O)c3ccccc23)cc1F		active: 2.99 µM
COc1ccc(NC2=C(Cl)C(=O)N(c3ccccc3)C2=O)c(OC)c1		inconclusive: 23.8 µM [inhibitor, partial curve]
COc1ccccc1-c1noc(-c2cc(OC)c(OC)c(OC)c2)n1		active: 8.44 µM
Cc1ccccc1S(=O)(=O)/N=C(/Nc1nc2ccccc2s1)c1ccccc1		inconclusive: 23.8 µM [inhibitor, single point]
Cc1nc(NC(=O)c2ccccc2)sc1-c1csc(Nc2ccc(C(=O)O)cc2)n1		inconclusive: 21.2 µM [inhibitor, partial curve]
COc1cccc2[nH]c(=O)c(-c3ccccc3)cc12	inactive: -1.3%	
Cn1ccnc1SCC(=O)c1ccc2ccccc2c1	inactive: -28.8%	
O=C(Oc1ccc(Br)cc1C(=S)N1CCCCC1)c1cc([N+](=O)[O-])cc([N+](=O)[O-])c1		inconclusive: 13.4 µM [inhibitor, partial curve]
Cc1ccc(S(=O)(=O)N/N=C/c2ccc(O)cc2O)cc1[N+](=O)[O-]		inconclusive: 26.7 µM [inhibitor, partial curve]
CCOc1ncccc1C(=O)N1CCN(C(c2ccccc2)c2ccccc2)CC1		inconclusive: 29.9 µM [inhibitor, single point]
CCOc1cccc(-c2c(C(=O)N/N=C/c3ccc(C)o3)nnn2-c2nonc2N)c1		inconclusive: 26.7 µM [inhibitor, single point]
CC(/C=N/n1c(C2CCCCC2)n[nH]c1=S)=C\c1ccccc1		inconclusive: 21.2 µM [inhibitor, partial curve]
O=C1C[C@@H](c2ccc(O)cc2)Oc2cc(O)cc(O)c21	inactive: 5.31%	
COc1ccc(NC2=C3CCCC=C3N(c3ccc(OC)cc3)C2=O)cc1		inconclusive: 16.8 µM [inhibitor, single point]
CC(NS(=O)(=O)c1ccc2c(c1)CC(C)N2C(=O)C1CC1)c1ccccc1 (stereo unspecified)	inactive: -5.49%	
CC(C)(C)CC(=O)NCCc1csc(-c2ccccc2)n1		inconclusive: 0.844 µM [inhibitor, single point]
CCOC(=O)c1cc2c(=Cc3ccc(N(C)C)cc3)c3ccccc3n2[n+]1C		active: 13.4 µM
c1ccc(-c2ccc(C3=Nn4c(Cn5nnc6ccccc65)nnc4SC3)cc2)cc1		active: 4.74 µM
CC1CCCC(NC(=O)COC(=O)Cc2c[nH]c3ccccc23)C1C (stereo unspecified)		inconclusive: 21.2 µM [inhibitor, single point]
Cc1cc(C)n(-c2nc3ccccc3c(=O)n2OCCOc2ccccc2)n1		active: 3.36 µM
N=C1SC(c2ccccc2)C(=O)N1c1ncc(Cc2ccccc2Cl)s1 (stereo unspecified)		inconclusive: 8.44 µM [inhibitor, partial curve]
N#CC(C(=O)OC1CCCCC1)c1nc2ccccc2nc1N1CCOCC1 (stereo unspecified)		inconclusive: 29.9 µM [inhibitor, single point]
CNC(=O)CCc1nc(-c2ccc(C(C)(C)C)cc2)no1		inconclusive: 29.9 µM [inhibitor, single point]
